No constants are given. Whether binding was seen depends on the method and setting. Some binding calls cover weakened binding; strength is not graded here. Where a sequence is shown, tags or fusion partners need not be part of it.
Target: T1, RBBP6_(1-335), FLAG-tagged, purified (human) (UniProt Q7Z6E9)
T1 sequence: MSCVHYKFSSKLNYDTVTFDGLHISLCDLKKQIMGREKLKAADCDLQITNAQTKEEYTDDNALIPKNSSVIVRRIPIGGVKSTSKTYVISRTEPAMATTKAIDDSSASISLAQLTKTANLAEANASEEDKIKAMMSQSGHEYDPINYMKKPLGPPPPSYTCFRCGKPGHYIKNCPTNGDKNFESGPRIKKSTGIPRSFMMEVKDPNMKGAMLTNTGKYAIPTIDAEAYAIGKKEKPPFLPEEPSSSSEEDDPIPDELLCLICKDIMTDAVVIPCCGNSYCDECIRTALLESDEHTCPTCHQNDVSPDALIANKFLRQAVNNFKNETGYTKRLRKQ
Test: pull-down

Sequences of proteins named here, by UniProt entry; tags and fusion partners are left off. A change or cut given only in a name is not applied to a line headed by its entry.
UniProt Q9UKF6: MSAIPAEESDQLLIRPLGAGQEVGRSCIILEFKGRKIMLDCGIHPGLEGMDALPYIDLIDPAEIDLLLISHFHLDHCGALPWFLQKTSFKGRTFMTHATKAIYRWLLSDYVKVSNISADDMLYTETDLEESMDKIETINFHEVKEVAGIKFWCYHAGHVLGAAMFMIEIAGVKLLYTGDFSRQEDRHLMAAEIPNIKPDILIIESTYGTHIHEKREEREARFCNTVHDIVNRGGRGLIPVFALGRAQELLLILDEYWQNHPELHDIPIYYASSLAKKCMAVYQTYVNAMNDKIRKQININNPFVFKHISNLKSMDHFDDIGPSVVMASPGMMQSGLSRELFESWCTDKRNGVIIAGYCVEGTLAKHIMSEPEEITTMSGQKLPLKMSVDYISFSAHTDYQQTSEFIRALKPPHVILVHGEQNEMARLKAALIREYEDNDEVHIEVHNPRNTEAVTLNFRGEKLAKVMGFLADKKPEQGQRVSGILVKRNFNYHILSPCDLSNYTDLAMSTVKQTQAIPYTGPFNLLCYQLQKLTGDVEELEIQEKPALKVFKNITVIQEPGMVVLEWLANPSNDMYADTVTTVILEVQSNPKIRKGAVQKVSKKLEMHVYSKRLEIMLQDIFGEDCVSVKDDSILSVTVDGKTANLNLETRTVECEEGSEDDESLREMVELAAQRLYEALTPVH

In the case of “four-subunit mCF (from UniProt Q9UKF6 1-684; Q9P2I0 1-782; Q92797 1-1274; P33240 1-577) (complex)”, the binding is reported as “binds”.

Source: publication doi:10.1101/2021.11.02.466878
